Results on one sequence are retold here after ChEMBL document CHEMBL2429777, “Synthesis and antibacterial activity evaluation of 2,6-bis(6-substituted-1,2,4-triazolo[3,4-b][1,3,4]thiadiazol-3-yl)pyridine derivatives” (2013).

What all share (format): functional
One experiment deals with Escherichia coli. Put plainly: Antibacterial activity against Escherichia coli at 100 ug/tube after 24 hrs by cylinder-plate method.
Another experiment has as its system Staphylococcus aureus. Put plainly: Antibacterial activity against Staphylococcus aureus at 100 ug/tube after 24 hrs by cylinder-plate method.
Another experiment relates to Pseudomonas aeruginosa. Put plainly: Antibacterial activity against Pseudomonas aeruginosa at 100 ug/tube after 24 hrs by cylinder-plate method.

Regarding GENTAMICIN, the inhibition zone (IZ) worked out at 25 mm in the experiment on Escherichia coli, 22 mm in the experiment on Staphylococcus aureus and 21 mm in the experiment on Pseudomonas aeruginosa.
